Assay results from US20120052070A1.
These are yes or no findings as the source states them, for the method shown. Some entries that bind do so weakly or less than the wild type.

Molecular target: cynomolgus DKK1 (cynomolgus monkey (Macaca fascicularis))
Experiment: solution equilibrium titration (SET)

binding: binds
B1: anti-DKK1/4 antibody (antibody, V domains shown)
VH: QVQLVESGGGLVQPGGSLRLSCAASGFTFSSYWMSWVRQAPGKGLEWVSGISYSGSNTHYADSVKGRFTISRDNSKNTLYLQMNSLRAEDTAVYYCARMGIDLDYWGQGTLVTVSS
VL: DIALTQPASVSGSPGQSITISCTGTSSDVGGFNYVSWYQQHPGKAPKLMIHDGSNRPSGVSNRFSGSKSGNTASLTISGLQAEDEADYYCQSWDVSPITAVFGGGTKLTVLG
